Measured values published in PubChem BioAssay AID588519 (ICCB-Longwood Screening Facility, Harvard Medical School, 2011).
This is one part of the list. Some tests of the compounds listed are not included; inactive here does not mean inactive elsewhere.

target: Genome polyprotein (Poliovirus type 1 (strain Mahoney)) (UniProt P03300); test: poliovirus RdRp elongation inhibitors, primary screen, biochemical, fluorescence polarization, total intensity (AID 588519); conditions: poliovirus polymerase elongation, stronger effect = lower value; % elongation: measured here: total intensity read-out, compound at 16.7 µg/mL; z-score: measured here: FP z-score

Compound	% elongation [%]	z-score
CCCCOc1ccccc1C(=O)NCC1(N(C)C)CCCCC1	109	-1
CN(C)c1ccc(C(=O)NCC2(N(C)C)CCCCC2)cc1	107	-0.2
CN(C)C1(CNC(=O)c2ccccc2[N+](=O)[O-])CCCCC1	107	0.8
CCOc1cccc(C(=O)NCC2(N(C)C)CCCCC2)c1	107	0
COc1ccc(OC)c(C=C(C#N)C#N)c1	97	-0.6
O=C(NCC1(N2CCOCC2)CCCCC1)c1cnc(Cl)c(Cl)c1	104	-0.1
CN(C)C1(CNC(=O)c2ccccc2F)CCCCC1	112	0.8
CN(C)C1(CNC(=O)c2cccc(Cl)c2)CCCCC1	106	-0.3
CC(C)COc1ccc(C(=O)NCC2(N(C)C)CCCCC2)cc1	105	-0.8
O=C(OC1CN2CCC1CC2)C(CO)(c1ccccc1)c1ccccc1 (stereo not drawn)	110	0.5
COc1cccc(C(=O)NCC2(N3CCOCC3)CCCCC2)c1	108	0
CC(C)Oc1ccc(C(=O)NCC2(N(C)C)CCCCC2)cc1	110	-0.4
O=C(NCC1(N2CCCCC2)CCCCC1)c1ccc2c(c1)OCCO2	108	-0.6
COc1cc(C(=O)NCC2(N(C)C)CCCCC2)cc(OC)c1OC	112	1.1
Cc1cccc(C(=O)NCC2(N(C)C)CCCCC2)c1	106	0
CN1C2CCC1CC(OC(=O)C(O)(c1ccccc1)c1ccccc1)C2 (stereo not drawn)	103	-0.8
CN(C)C1(CNC(=O)c2ccncc2)CCCCC1	108	0.4
COc1ccc(C(=O)NCC2(N(C)C)CCCCC2)cc1Cl	103	-0.9
N#CC(C#N)=Cc1ccccc1	83	-1.8
